Article PMC11705628
Results are given in words; binding and its absence hold for the method and conditions named. Binding seen in cells or lysates may run through a third protein. Some binding calls cover weakened binding; strength is not graded here.

Chains of the proteins cited; added tags and fusions are not shown.
UniProt Q9GZN2: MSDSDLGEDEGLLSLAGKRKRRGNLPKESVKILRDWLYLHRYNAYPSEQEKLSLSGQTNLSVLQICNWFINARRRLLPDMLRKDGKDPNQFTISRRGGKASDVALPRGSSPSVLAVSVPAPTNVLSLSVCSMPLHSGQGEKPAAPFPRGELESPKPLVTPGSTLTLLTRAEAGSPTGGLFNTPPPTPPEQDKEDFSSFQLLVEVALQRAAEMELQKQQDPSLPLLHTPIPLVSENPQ
UniProt Q15796: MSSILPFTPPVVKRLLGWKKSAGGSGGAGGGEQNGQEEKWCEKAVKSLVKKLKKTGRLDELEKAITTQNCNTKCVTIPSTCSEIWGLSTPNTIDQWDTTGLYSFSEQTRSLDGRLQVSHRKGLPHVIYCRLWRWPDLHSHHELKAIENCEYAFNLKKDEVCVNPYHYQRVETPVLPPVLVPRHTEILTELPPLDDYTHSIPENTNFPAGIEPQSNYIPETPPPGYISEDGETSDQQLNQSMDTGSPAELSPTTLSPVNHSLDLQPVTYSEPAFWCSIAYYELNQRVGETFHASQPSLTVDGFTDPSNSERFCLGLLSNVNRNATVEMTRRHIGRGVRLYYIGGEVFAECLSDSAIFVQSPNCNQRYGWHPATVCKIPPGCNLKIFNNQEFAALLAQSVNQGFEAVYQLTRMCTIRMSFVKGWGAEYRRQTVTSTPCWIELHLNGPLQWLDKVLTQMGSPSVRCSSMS

Target: TGF-β-induced factor homeobox 2 (human (endogenous in BxPC-3)) (UniProt Q9GZN2)
Experiment: co-IP; lysate of BxPC-3 (RIPA lysis buffer; legend: PANC-1 and BxPC-3 cells); TGIF2 antibodies with magnetic beads, overnight at 4°C; immunocomplex boiled in WB loading buffer; input and IgG as controls

SMAD family member 2 (from UniProt Q15796 1-467)
binding: binds
